Test results reported in publication PMC8125419.
These are yes or no findings as the source states them, for the method shown. In cells and extracts the contact can be indirect. Some entries that bind do so weakly or less than the wild type. For some of these results: Sequences can lack the tags named with a protein.

Sequences of proteins named here, by UniProt entry; tags and fusion partners are left off.
UniProt Q9Y6K9: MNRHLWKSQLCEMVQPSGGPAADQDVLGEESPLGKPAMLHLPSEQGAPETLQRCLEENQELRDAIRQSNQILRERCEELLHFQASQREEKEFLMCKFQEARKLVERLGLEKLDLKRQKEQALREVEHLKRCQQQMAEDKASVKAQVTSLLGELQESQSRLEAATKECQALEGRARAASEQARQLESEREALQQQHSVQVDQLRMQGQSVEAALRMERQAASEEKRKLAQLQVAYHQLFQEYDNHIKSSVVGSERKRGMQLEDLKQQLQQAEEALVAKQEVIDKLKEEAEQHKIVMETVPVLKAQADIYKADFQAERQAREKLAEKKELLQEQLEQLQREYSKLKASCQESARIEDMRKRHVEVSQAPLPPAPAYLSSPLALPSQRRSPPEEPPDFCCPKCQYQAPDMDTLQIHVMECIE

Key:
[1] = target: T1, human Caspase 12 (hCasp12), GFP-tagged, expressed from pC12 (human) (UniProt Q6UXS9); experiment: co-IP; lysates of pC12-transfected NPC cells (24 h); immunoprecipitated with anti-hCasp12 antibody, Protein A/G magnetic beads; western blot for IKKα and IKKβ
T1 sequence: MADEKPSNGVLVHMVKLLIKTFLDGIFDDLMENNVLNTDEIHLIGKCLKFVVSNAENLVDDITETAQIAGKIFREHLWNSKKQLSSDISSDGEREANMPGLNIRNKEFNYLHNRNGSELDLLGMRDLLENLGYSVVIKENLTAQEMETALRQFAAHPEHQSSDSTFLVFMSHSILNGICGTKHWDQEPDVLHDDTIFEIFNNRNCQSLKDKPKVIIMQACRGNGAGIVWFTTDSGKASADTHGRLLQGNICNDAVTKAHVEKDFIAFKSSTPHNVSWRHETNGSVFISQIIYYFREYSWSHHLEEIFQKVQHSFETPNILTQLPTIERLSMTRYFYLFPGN

[2] = target: NF-κB essential modulator (NEMO) (human (endogenous in NPC cells)) (UniProt Q9Y6K9); experiment: co-IP; lysates of pC12-transfected and control NPC cells (24 h); immunoprecipitated with anti-NEMO antibody, Protein A/G magnetic beads; western blot with the indicated antibodies
[3] = target: T2, IKKα (human (endogenous in NPC cells)) (UniProt O15111); experiment: co-IP; lysates of pC12-transfected and control NPC cells (24 h); immunoprecipitated with anti-IKKα antibody (the legend says anti-IKKβ), Protein A/G magnetic beads; western blot for hCasp12 and NEMO
T2 sequence: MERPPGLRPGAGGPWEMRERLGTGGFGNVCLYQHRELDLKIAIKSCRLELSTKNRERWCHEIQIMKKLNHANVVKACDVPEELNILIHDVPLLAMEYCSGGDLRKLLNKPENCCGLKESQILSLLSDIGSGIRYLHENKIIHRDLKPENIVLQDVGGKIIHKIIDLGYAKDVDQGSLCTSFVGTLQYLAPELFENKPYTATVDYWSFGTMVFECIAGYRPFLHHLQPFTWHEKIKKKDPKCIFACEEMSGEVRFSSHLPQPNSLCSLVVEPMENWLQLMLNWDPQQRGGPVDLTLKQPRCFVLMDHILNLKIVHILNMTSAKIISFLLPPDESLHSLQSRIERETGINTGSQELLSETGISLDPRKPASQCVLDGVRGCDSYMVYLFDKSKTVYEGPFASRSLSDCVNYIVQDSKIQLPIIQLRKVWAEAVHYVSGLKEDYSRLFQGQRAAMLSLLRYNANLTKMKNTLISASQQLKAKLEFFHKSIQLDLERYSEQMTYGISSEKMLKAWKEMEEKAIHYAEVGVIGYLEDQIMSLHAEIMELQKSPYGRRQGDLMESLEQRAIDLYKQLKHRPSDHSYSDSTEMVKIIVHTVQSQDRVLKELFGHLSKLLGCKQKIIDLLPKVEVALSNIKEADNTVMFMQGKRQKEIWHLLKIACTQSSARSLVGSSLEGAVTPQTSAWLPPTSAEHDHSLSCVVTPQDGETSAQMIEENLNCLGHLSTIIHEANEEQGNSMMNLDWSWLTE

[4] = target: NF-κB essential modulator (NEMO) (human (endogenous in NPC cells)), Q9Y6K9; experiment: co-IP; lysates of pC12-transfected and control NPC cells (24 h); immunoprecipitated with anti-NEMO antibody, Protein A/G magnetic beads; western blot with the indicated antibodies; settings: remark: other sources report otherwise

B1: IKKβ (protein, UniProt O14920 1-756)
chain: MSWSPSLTTQTCGAWEMKERLGTGGFGNVIRWHNQETGEQIAIKQCRQELSPRNRERWCLEIQIMRRLTHPNVVAARDVPEGMQNLAPNDLPLLAMEYCQGGDLRKYLNQFENCCGLREGAILTLLSDIASALRYLHENRIIHRDLKPENIVLQQGEQRLIHKIIDLGYAKELDQGSLCTSFVGTLQYLAPELLEQQKYTVTVDYWSFGTLAFECITGFRPFLPNWQPVQWHSKVRQKSEVDIVVSEDLNGTVKFSSSLPYPNNLNSVLAERLEKWLQLMLMWHPRQRGTDPTYGPNGCFKALDDILNLKLVHILNMVTGTIHTYPVTEDESLQSLKARIQQDTGIPEEDQELLQEAGLALIPDKPATQCISDGKLNEGHTLDMDLVFLFDNSKITYETQISPRPQPESVSCILQEPKRNLAFFQLRKVWGQVWHSIQTLKEDCNRLQQGQRAAMMNLLRNNSCLSKMKNSMASMSQQLKAKLDFFKTSIQIDLEKYSEQTEFGITSDKLLLAWREMEQAVELCGRENEVKLLVERMMALQTDIVDLQRSPMGRKQGGTLDDLEEQARELYRRLREKPRDQRTEGDSQEMVRLLLQAIQSFEKKVRVIYTQLSKTVVCKQKALELLPKVEEVVSLMNEDEKTVVRLQEKRQKELWNLLKIACSKVRGPVSGSPDSMNASRLSQPGQLMSQPSTASNSLPEPAKKSEELVAEAHNLCTLLENAIQDTVREQDQSFTALDWSWLQTEEEEHSCLEQAS
binding [1]: binds

B2: human Caspase 12 (hCasp12), GFP-tagged, expressed from pC12 (protein, UniProt Q6UXS9 1-341)
chain: T1 sequence
binding [2]: no binding | binding [3]: binds

B3: IKKα, O15111 1-745 (protein)
chain: T2 sequence
binding [4]: binds
